Laboratory results: article PMC8944797, “Novel Antimicrobial Peptides Designed Using a Recurrent Neural Network Reduce Mortality in Experimental Sepsis” (Antibiotics, 2022)

Legend:
[1] = tested on: carbapenem-resistant isolates of Klebsiella aerogenes; conditions: median (first and third quartile) over n = 12 isolates; Mueller-Hinton broth, 37 °C, 18–20 h; range tested 0 to 32 μg/mL
Experimental: (§1) The strains of bacteria were isolated in 2021 from patients in the intensive care unit of the Stavropol State Regional Clinical Hospital. Identification and determination of antibiotic resistance of bacterial isolates were carried out using the disk diffusion method as part of a routine microbiological study in accordance with the European Committee on Antimicrobial Susceptibility Testing (EUCAST) protocols in the Department of Clinical Microbiology of the Center of Clinical Pharmacology and Pharmacotherapy.
(§2) The study of the antimicrobial activity of the synthesized peptides was performed by the standard broth dilution method according to the EUCAST guidelines. Briefly, pure bacterial cultures were cultured on a solid nutrient media (mannitol salt agar, BioMedia, Russia). From a fresh morning culture, we prepared a suspension in sterile saline corresponding to a McFarland turbidity standard of 0.5 (which is equivalent to 1–2 × 10^8 CFU/mL). The resulting suspension was dissolved in the BBL^TM Mueller-Hinton broth (Becton, Dickinson and Company, Franklin Lakes, NJ, USA) to obtain an inoculum with an approximate concentration of 5 × 10^5 CFU/mL. The inoculum (100 μL per well) was added to the wells of a sterile 96-well microtiter plate with a U-shaped bottom (Medpolymer, St. Petersburg, Russia). After that, serial two-fold dilutions of tested peptides (100 μL per well) were added to the wells. There were also sterility control wells (Mueller-Hinton broth only, without bacteria) and growth control wells (bacterial inoculum without peptides). Then, the plates were incubated in a thermostat at 37 °C. […] The MIC was taken as the minimum peptide concentration at which there was no visual growth in the corresponding well [26]. The peptides were dissolved in the Mueller–Hinton broth. The experiments with each peptide and bacterial isolate were performed in triplicate (in different plates). MIC values were calculated as median values of three independent replicates (calculations are presented in Supplementary Tables S1–S3).
(§3) Calculations of MICs (median, first, and third quartile) were performed in Microsoft Excel (Supplementary Tables S1–S3). Survival analysis by the Kaplan–Meier method and log-rank (Mantel–Cox) test was performed using GraphPad Prism version 9.2.0 for macOS (GraphPad Software, San Diego, CA, USA, www.graphpad.com, accessed on 29 January 2022).

[2] = tested on: carbapenem-resistant isolates of K. pneumoniae; conditions: median (first and third quartile) over n = 18 isolates; Mueller-Hinton broth, 37 °C, 18–20 h; range tested 0 to 32 μg/mL
Experimental: as §1, §2, §3

[3] = tested on: carbapenem-resistant isolates of Pseudomonas aeruginosa; conditions: median (first and third quartile) over n = 17 isolates; Mueller-Hinton broth, 37 °C, 18–20 h; range tested 0 to 32 μg/mL
Experimental: as §1, §2, §3

| SMILES | MIC [1] | MIC [2] | MIC [3] |
| --- | --- | --- | --- |
| CC[C@H](C)[C@H](NC(=O)[C@H](C)NC(=O)[C@H](CCCCN)NC(=O)[C@H](CCC(N)=O)NC(=O)[C@H](CO)NC(=O)[C@H](CC(N)=O)NC(=O)[C@H](C)NC(=O)[C@H](CC(C)C)NC(=O)[C@H](CCCCN)NC(=O)[C@H](Cc1c[nH]c2ccccc12)NC(=O)[C@H](CC(C)C)NC(=O)[C@H](CO)NC(=O)CNC(=O)[C@H](CC(C)C)NC(=O)[C@H](C)NC(=O)[C@H](CCCCN)NC(=O)[C@H](CCCCN)NC(=O)[C@@H](NC(=O)[C@H](Cc1c[nH]c2ccccc12)NC(=O)[C@H](CC(=O)O)NC(=O)[C@H](CCCCN)NC(=O)[C@H](CC(C)C)NC(=O)CN)C(C)C)C(=O)N[C@H](C(=O)N[C@@H](CO)C(=O)NCC(=O)N[C@@H](CCCCN)C(=O)N[C@@H](CCCCN)C(=O)N[C@@H](CO)C(=O)O)[C@@H](C)CC [PEP-38] | 6 (4–8) μg/mL | 8 (4–8) μg/mL | – |
| CC[C@H](C)[C@H](NC(=O)[C@H](CCCCN)NC(=O)[C@H](CO)NC(=O)CNC(=O)[C@H](Cc1c[nH]cn1)NC(=O)[C@H](CCCCN)NC(=O)[C@H](CCCCN)NC(=O)[C@H](C)NC(=O)[C@H](Cc1ccccc1)NC(=O)[C@H](CCCCN)NC(=O)[C@H](CCCCN)NC(=O)[C@@H](NC(=O)[C@@H](NC(=O)[C@H](CCCCN)NC(=O)[C@H](Cc1ccccc1)NC(=O)CNC(=O)[C@H](Cc1ccccc1)NC(=O)[C@H](CCCCN)NC(=O)[C@H](C)NC(=O)[C@H](CC(C)C)NC(=O)[C@H](CCCCN)NC(=O)[C@H](CCCCN)NC(=O)[C@@H](NC(=O)[C@H](Cc1ccccc1)NC(=O)[C@H](CO)NC(=O)[C@H](CCCCN)NC(=O)[C@H](Cc1c[nH]c2ccccc12)NC(=O)[C@@H](N)CCCCN)[C@@H](C)CC)C(C)C)[C@@H](C)CC)C(=O)N[C@@H](C)C(=O)N[C@@H](CCCCN)C(=O)N[C@@H](CC(N)=O)C(=O)N[C@@H](CCC(N)=O)C(=O)O [PEP-137] | 2 (1–2.5) μg/mL | 2 (1–4) μg/mL | 2 (2–4) μg/mL |
